Results are given in words; binding and its absence hold for the method and conditions named.
Key:
[1] = molecular target: human p75NTR death domain (hP75DD), deamidated at N352 (human) (UniProt P08138); experiment: NMR rotational and translational diffusion; isolated death domains in 50 mM NaPi pH 7.0 with reducing agent, various concentrations up to 1 mM, 30 C; rotational correlation time from cross-correlated relaxation, self-diffusion by PGSTE; both purified
[2] = molecular target: rat p75NTR death domain (rP75DD), fragment 331-425 (rat) (UniProt P07174); experiment: as above
[3] = molecular target: T1, human p75NTR death domain (hP75DD), residues 330-427 (human), P08138; experiment: dynamic light scattering; hP75DD, protein concentration up to 300 μM; both purified; settings: remark: other sources report otherwise
T1 chain: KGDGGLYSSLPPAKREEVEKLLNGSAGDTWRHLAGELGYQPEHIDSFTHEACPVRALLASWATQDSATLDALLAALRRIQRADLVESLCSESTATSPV

[4] = molecular target: T1, human p75NTR death domain (hP75DD), …; experiment: NMR 1H,15N-HSQC, populations of the two states on dilution and change of buffer; hP75DD in phosphate buffer, changed to HEPES, threefold dilution down to 300 μM; both purified; settings: remark: other sources report otherwise
[5] = molecular target: T1, human p75NTR death domain (hP75DD), …; experiment: NMR rotational and translational diffusion; isolated death domains in 50 mM NaPi pH 7.0 with reducing agent, various concentrations up to 1 mM, 30 C; rotational correlation time from cross-correlated relaxation, self-diffusion by PGSTE; both purified; settings: remark: other sources report otherwise

In the case of “human p75NTR death domain (hP75DD), deamidated at N352 (from UniProt P08138 330-427) (domain or fragment)”, the binding [1] is reported as “no binding (tested: 1 mM)”.

B1: rat p75NTR death domain (rP75DD), fragment 331-425 (domain or fragment, UniProt P07174 331-425)
chain: KGDGNLYSSLPLTKREEVEKLLNGDTWRHLAGELGYQPEHIDSFTHEACPVRALLASWGAQDSATLDALLAALRRIQRADIVESLCSESTATSPV
In the case of B1, the binding [2] is reported as “no binding (tested: 1 mM)”.

B2: human p75NTR death domain (hP75DD), residues 330-427, P08138 330-427 (domain or fragment)
chain: KGDGGLYSSLPPAKREEVEKLLNGSAGDTWRHLAGELGYQPEHIDSFTHEACPVRALLASWATQDSATLDALLAALRRIQRADLVESLCSESTATSPV
B2 was tested, and the binding [3] was “no binding (tested: up to 300 μM)”, the binding [4] was “no binding” and the binding [5] was “no binding (tested: 1 mM)”.

Source: publication PMC7427093, “Revising the mechanism of p75NTR activation: intrinsically monomeric state of death domains invokes the "helper" hypothesis” (Scientific Reports, 2020)
